Laboratory results published in PMC7609059.
Positions count from the first letter of the chain named. Results are given in words; binding and its absence hold for the method and conditions named. For some of these results: Binding seen in cells or lysates may run through a third protein. Some entries that bind do so weakly or less than the wild type. Where a sequence is shown, tags or fusion partners need not be part of it. One block for each binder: values may come before it.

Experiments:
[1] = biological target: T1, FLAG-tagged Atg43ΔC60 (lacking the 60 C-terminal aa) (S. pombe) (UniProt O13709); assay: co-IP
T1 sequence: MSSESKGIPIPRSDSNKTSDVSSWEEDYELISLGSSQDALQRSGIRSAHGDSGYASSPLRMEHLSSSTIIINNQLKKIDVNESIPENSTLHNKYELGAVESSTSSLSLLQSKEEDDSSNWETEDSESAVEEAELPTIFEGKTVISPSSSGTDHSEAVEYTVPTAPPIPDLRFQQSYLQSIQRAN

[2] = biological target: T2, FLAG-tagged Atg43ΔN164 (the 80 C-terminal aa, aa 165-244) (S. pombe) (UniProt O13709); assay: co-IP
T2 sequence: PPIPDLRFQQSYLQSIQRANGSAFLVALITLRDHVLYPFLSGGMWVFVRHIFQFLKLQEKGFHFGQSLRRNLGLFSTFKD

FLAG-Mim1 (S. pombe) = biological target: T3, FLAG-Mim1 (S. pombe) (UniProt Q9C1W7); assay: co-IP
T3 sequence: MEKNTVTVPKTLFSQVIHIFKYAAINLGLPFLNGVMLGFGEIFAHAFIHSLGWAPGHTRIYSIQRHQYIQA

[3] = biological target: T4, FLAG-tagged Atg43 (full-length) (S. pombe) (UniProt O13709); assay: co-IP
T4 sequence: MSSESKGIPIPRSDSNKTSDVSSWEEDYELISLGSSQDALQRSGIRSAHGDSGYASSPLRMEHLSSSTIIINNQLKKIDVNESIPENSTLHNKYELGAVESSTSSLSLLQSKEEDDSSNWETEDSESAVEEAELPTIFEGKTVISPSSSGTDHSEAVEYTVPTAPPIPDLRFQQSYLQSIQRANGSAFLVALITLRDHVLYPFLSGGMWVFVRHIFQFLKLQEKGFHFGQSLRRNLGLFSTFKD

[4] = biological target: T5, DNA-binding domain (BD)-fused Atg43 aa 1-40 (S. pombe) (UniProt O13709); assay: two-hybrid
T5 sequence: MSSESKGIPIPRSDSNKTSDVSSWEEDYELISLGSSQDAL

[5] = biological target: T6, DNA-binding domain (BD)-fused AIM-mutated Atg43 aa 1-40 (S. pombe) (UniProt O13709); assay: two-hybrid
T6 sequence: T5 sequence with Y28A, I31A

[6] = biological target: T7, DNA-binding domain (BD)-fused Atg43 aa 1-184 (S. pombe) (UniProt O13709); assay: two-hybrid
T7 sequence: T1 sequence

[7] = biological target: T8, DNA-binding domain (BD)-fused AIM-mutated Atg43 aa 1-184 (S. pombe) (UniProt O13709); assay: two-hybrid
T8 sequence: T1 sequence with Y28A, I31A

[8] = biological target: T9, GFP-fused Mim1 (S. pombe) (UniProt Q9C1W7); assay: co-IP
T9 sequence: T3 sequence

[9] = biological target: T10, GFP-fused Atg8 (S. pombe) (UniProt O94272); assay: co-IP
T10 sequence: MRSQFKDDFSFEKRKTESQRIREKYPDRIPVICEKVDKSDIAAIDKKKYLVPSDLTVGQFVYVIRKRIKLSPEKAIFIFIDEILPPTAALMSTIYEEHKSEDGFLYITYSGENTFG

[10] = biological target: T11, GFP-fused Mim2 (S. pombe) (UniProt G2TRP0); assay: co-IP
T11 sequence: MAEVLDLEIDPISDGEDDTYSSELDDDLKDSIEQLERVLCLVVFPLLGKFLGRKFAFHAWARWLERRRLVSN

binding [1]: no binding | binding [2]: binds | binding (FLAG-Mim1 (S. pombe)): binds | binding [3]: binds
B1: GFP-fused Mim2 (protein, UniProt G2TRP0 1-72)
chain: T11 sequence

binding [4]: binds | binding [5]: no binding | binding [6]: binds | binding [7]: no binding
B2: activation domain (AD)-fused Atg8 (protein, UniProt O94272 1-121)
chain: MRSQFKDDFSFEKRKTESQRIREKYPDRIPVICEKVDKSDIAAIDKKKYLVPSDLTVGQFVYVIRKRIKLSPEKAIFIFIDEILPPTAALMSTIYEEHKSEDGFLYITYSGENTFGTVFPF

binding [8]: binds | binding [9]: binds | binding [10]: binds
B3: FLAG-tagged Atg43 (full-length) (protein, UniProt O13709 1-244)
chain: T4 sequence

binding [10]: binds
B4: FLAG-Mim1 (protein, UniProt Q9C1W7 1-71)
chain: T3 sequence

binding [3]: binds
B5: GFP-fused Mim1 (protein, UniProt Q9C1W7 1-71)
chain: T3 sequence
